For this assay, the target named is SARS-CoV-2 ORF7B (SARS-CoV-2) (UniProt P0DTD8). Kind of assay: two-hybrid.

Amino acid sequences for entries named in this document (tags omitted).
UniProt P0DTD8, whole entry: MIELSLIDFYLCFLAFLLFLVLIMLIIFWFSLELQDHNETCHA
UniProt P49069, whole entry: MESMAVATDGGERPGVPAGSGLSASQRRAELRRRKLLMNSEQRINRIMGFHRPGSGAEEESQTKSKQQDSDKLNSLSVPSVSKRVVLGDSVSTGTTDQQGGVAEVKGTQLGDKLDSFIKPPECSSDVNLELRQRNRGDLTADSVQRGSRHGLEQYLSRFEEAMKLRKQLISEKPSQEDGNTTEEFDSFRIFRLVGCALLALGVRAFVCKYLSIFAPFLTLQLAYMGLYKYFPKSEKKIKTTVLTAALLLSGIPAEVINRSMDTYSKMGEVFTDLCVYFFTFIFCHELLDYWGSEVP

Experimental findings from doi:10.1101/2021.03.15.433877 are described below.

Results are given in words; binding and its absence hold for the method and conditions named. Some entries that bind do so weakly or less than the wild type.

Regarding CAMLG (from UniProt P49069 1-296), the binding entry is given as “binds”.
